Values joined by “and” are separate entries in the source; they are usually repeats but may differ in a detail not shown here. Equal entries are not always repeated. Structures can show the parent of a compound that is named as a salt. ± gives the standard deviation of the averaged measurements. Some of the results follow. Many values rest on one well or one pass, so single values are uncertain.
Test system: RAW 264.7
Assay: HMGB1-induced TNF-alpha production relative to HMGB1-stimulated control; higher = more TNF-alpha secretion (less inhibition)
Conditions: stimulus: HMGB1 5 ug/ml, 18 h
[1] = compound concentration: 1 ug/ml

| SMILES | HMGB1-induced TNF-alpha production (compound concentration: 3 uM) | HMGB1-induced TNF-alpha production [1] |
| --- | --- | --- |
| C=CCC1(CC(C)C)C(=O)NC(=O)NC1=O [Butalbital] | 80.7% |  |
| O=C1CCO1 | 93 ± 6% |  |
| O=C(CCCN1CCC(n2c(=O)[nH]c3ccccc32)CC1)c1ccc(F)cc1 [Benperidol] | 74.6% |  |
| COc1ccc(C(=O)OC2C[C@H]3CC[C@@H](C2)N3C)cc1OC (stereo partly specified) [Convolamine hydrochloride] | 101% |  |
| CN[C@@H]1[C@H]2[C@@H]3CCN2C[C@H]1O3 [Loline] |  | 71.8% |
| C[C@@H]1CC[C@]2(NC1)O[C@H]1C[C@H]3[C@@H]4CC=C5C[C@@H](O)CC[C@]5(C)[C@H]4CC[C@]3(C)[C@H]1[C@@H]2C [Solasodine] |  | 72.1% |
| Cc1ccc2[nH]cc(CCN)c2c1 [5-Methyltryptamine Hydrochloride] |  | 83.7% |
| CCC(=O)O[C@H]1CC[C@H]2[C@@H]3CCC4=CC(=O)CC[C@]4(C)[C@H]3CC[C@]12C | 93.5% |  |
| CCC(=O)O[C@H]1CC[C@H]2[C@@H]3CCC4=CC(=O)CC[C@]4(C)[C@H]3CC[C@]12C [Testosterone propionate] | 103% |  |
| COc1ccc(OC)c(C(O)C(C)N)c1 (stereo unspecified) | 86.7% |  |
| COc1ccc(OC)c(C(O)C(C)N)c1 (stereo unspecified) [Methoxamine hydrochloride] | 91.8 ± 20% |  |
| Cc1o[nH]c(=O)c1CC(N)C(=O)O (racemic) [(±)-AMPA hydrobromide] | 61% |  |
| CCCCOC(=O)c1ccccc1C(=O)OCCCC | 85.5% |  |
| CC[C@@H](CO)NC(=O)[C@@H]1C=C2c3cccc4[nH]cc(c34)C[C@H]2N(C)C1 [Methylergometrine maleate] | 72% |  |
| CC[C@@H](CO)NC(=O)[C@@H]1C=C2c3cccc4[nH]cc(c34)C[C@H]2N(C)C1 [Methylergonovine maleate] | 98.2% |  |
| CC[C@@H](CO)NC(=O)[C@@H]1C=C2c3cccc4[nH]cc(c34)C[C@H]2N(C)C1 | 91.6% |  |
| CCC1(C2=NCCN2)Cc2ccccc2O1 (stereo unspecified) [Efaroxan hydrochloride] | 78% |  |
| CCC1(C2=NCCN2)Cc2ccccc2O1 (stereo unspecified) | 99.3% |  |
| CCC1(C2=NCCN2)Cc2ccccc2O1 (stereo unspecified) [Efaroxan] | 90.5% |  |
| CCOC(=O)c1ncn2c1[C@@H]1CCCN1C(=O)c1cc(OC)ccc1-2 | 111% |  |
| NC(N)=Nc1ccc2[nH]c3c(c2c1)C[C@@]1(O)[C@H]2Cc4ccc(O)c5c4[C@@]1(CCN2CC1CC1)[C@H]3O5 [Guanidinyl-naltrindole di-trifluoroacetate] | 102% |  |

15 neighbouring entries already listed, quoted:

| SMILES | HMGB1-induced TNF-alpha production (compound concentration: 3 uM) | HMGB1-induced TNF-alpha production [1] |
| --- | --- | --- |
| C=CCC1(CC(C)C)C(=O)NC(=O)NC1=O [Butalbital] | 80.7% |  |
| O=C1CCO1 | 93 ± 6% |  |
| O=C(CCCN1CCC(n2c(=O)[nH]c3ccccc32)CC1)c1ccc(F)cc1 [Benperidol] | 74.6% |  |
| COc1ccc(C(=O)OC2C[C@H]3CC[C@@H](C2)N3C)cc1OC (stereo partly specified) [Convolamine hydrochloride] | 101% |  |
| CN[C@@H]1[C@H]2[C@@H]3CCN2C[C@H]1O3 [Loline] |  | 71.8% |
| C[C@@H]1CC[C@]2(NC1)O[C@H]1C[C@H]3[C@@H]4CC=C5C[C@@H](O)CC[C@]5(C)[C@H]4CC[C@]3(C)[C@H]1[C@@H]2C [Solasodine] |  | 72.1% |
| Cc1ccc2[nH]cc(CCN)c2c1 [5-Methyltryptamine Hydrochloride] |  | 83.7% |
| CCC(=O)O[C@H]1CC[C@H]2[C@@H]3CCC4=CC(=O)CC[C@]4(C)[C@H]3CC[C@]12C | 93.5% |  |
| CCC(=O)O[C@H]1CC[C@H]2[C@@H]3CCC4=CC(=O)CC[C@]4(C)[C@H]3CC[C@]12C [Testosterone propionate] | 103% |  |
| COc1ccc(OC)c(C(O)C(C)N)c1 (stereo unspecified) | 86.7% |  |
| COc1ccc(OC)c(C(O)C(C)N)c1 (stereo unspecified) [Methoxamine hydrochloride] | 91.8 ± 20% |  |
| Cc1o[nH]c(=O)c1CC(N)C(=O)O (racemic) [(±)-AMPA hydrobromide] | 61% |  |
| CCCCOC(=O)c1ccccc1C(=O)OCCCC | 85.5% |  |
| CC[C@@H](CO)NC(=O)[C@@H]1C=C2c3cccc4[nH]cc(c34)C[C@H]2N(C)C1 [Methylergometrine maleate] | 72% |  |
| CC[C@@H](CO)NC(=O)[C@@H]1C=C2c3cccc4[nH]cc(c34)C[C@H]2N(C)C1 [Methylergonovine maleate] | 98.2% |  |

The list continues.

| SMILES | HMGB1-induced TNF-alpha production (compound concentration: 3 uM) | HMGB1-induced TNF-alpha production [1] |
| --- | --- | --- |
| C[C@@H]1C[C@@H]([C@H](O)CC2CC(=O)NC(=O)C2)C(=O)[C@@H](C)C1 | 14.6% |  |
| C[C@@H]1C[C@@H]([C@H](O)CC2CC(=O)NC(=O)C2)C(=O)[C@@H](C)C1 [Cycloheximide] | 10.9% |  |
| CN1[C@@H]2CC[C@H]1C[C@@H](OC(=O)c1cc(Cl)cc(Cl)c1)C2 [3-Tropanyl-3,5-dichlorobenzoate] | 105% |  |
| O=C(O)C(Cl)Cl | 106% |  |
| CC(C)(C)c1cc(C=C(C#N)C#N)cc(C(C)(C)C)c1O [Tyrphostin A9] | 289% |  |
| O=C(O)c1nn(Cc2ccc(Cl)cc2Cl)c2ccccc12 [Lonidamine] | 98.5% |  |
| O=C(O)c1nn(Cc2ccc(Cl)cc2Cl)c2ccccc12 | 91.9% |  |
| COc1ccc2c(c1OC)C(=O)O[C@@H]2[C@H]1c2cc3c(cc2CCN1C)OCO3 [(1R,9S)-(-)-beta-Hydrastine ; Hydrastine] |  | 80.8% |
| COc1ccc2c(c1OC)C(=O)O[C@@H]2[C@H]1c2cc3c(cc2CCN1C)OCO3 | 78.2% |  |
| Cc1cc(C(C#N)c2ccc(Cl)cc2)c(Cl)cc1NC(=O)c1cc(I)cc(I)c1O (stereo unspecified) [Closantel] | 67 ± 12% |  |
| O=c1[nH]oc2c1CCNC2 [THIP Hydrochloride] | 98.8% |  |
| O=c1[nH]oc2c1CCNC2 [THIP hydrochloride] | 98.2% |  |
| CC(C)(O)[C@@H]1[C@H]2OC(=O)[C@@H]1[C@]1(O)C[C@H]3O[C@]34C(=O)O[C@H]2[C@]14C [Picrotin] |  | 81% |
| NC(Cc1cc(O)c(O)cc1O)C(=O)O (racemic) [6-Hydroxy-DL-DOPA] | 98.1% |  |
| C[N+]1(C)[C@@H]2CC(OC(=O)[C@H](CO)c3ccccc3)C[C@H]1[C@@H]1O[C@@H]12 (single isomer, unassigned; (-)) [(-)-Scopolamine methyl nitrate] | 90.7% |  |
| C[N+]1(C)CCc2cc3c(cc2[C@H]1[C@@H]1OC(=O)c2c1ccc1c2OCO1)OCO3 [(-)-Bicuculline methbromide, 1(S), 9(R)] | 76.5% |  |
| Cc1nnc2n1-c1ccc(Cl)cc1C(c1ccccc1)=NC2 [Alprazolam] | 96.2% |  |
| COc1ccc2c(c1O)-c1cccc3c1[C@@H](C2)N(C)CC3 [R(-)-Apocodeine hydrochloride] | 89.8% |  |
| COc1cc2c(cc1OC)C13CCN4CC5=CCOC6CC(=O)N2C1C6C5CC43 (stereo unspecified) |  | 69.2% |
| CC[C@@H](C)C(=O)O[C@H]1[C@H](O)[C@H]2[C@@H](CN3C[C@@H](C)CC[C@H]3[C@@]2(C)O)[C@@H]2C[C@]34O[C@]5(O)[C@@H](OC(=O)[C@@](C)(O)CC)CC[C@@]3(C)[C@@H]5[C@@H](OC(C)=O)[C@@H](OC(C)=O)[C@H]4[C@@]21O | 98.4% |  |
| NCC1(CC(=O)O)CCCCC1 | 82.9% |  |

| SMILES | HMGB1-induced TNF-alpha production (compound concentration: 3 uM) | HMGB1-induced TNF-alpha production [1] |
| --- | --- | --- |
| NCC1(CC(=O)O)CCCCC1 [Gabapentin] | 93.9 ± 18% |  |
| O=c1cccc2n1C[C@@H]1CNC[C@H]2C1 [Cytisine] |  | 81.9% |
| O=c1cccc2n1C[C@@H]1CNC[C@H]2C1 | 62.2% |  |
| C=C1CC[C@@]2(O)[C@H]3Cc4ccc(O)c5c4[C@@]2(CCN3CC2CC2)[C@H]1O5 [Nalmefene hydrochloride] | 110% |  |
| CC(C)Oc1cccnc1N(C)C1CCN(Cc2ccccc2)CC1 | 98% |  |
| O=[N+]([O-])O[C@H]1CO[C@H]2[C@@H]1OC[C@H]2O[N+](=O)[O-] [Isosorbide dinitrate] | 96.3% |  |
| O=[N+]([O-])O[C@H]1CO[C@H]2[C@@H]1OC[C@H]2O[N+](=O)[O-] | 70.3% |  |
| CC(N)C(O)c1ccccc1 (stereo unspecified) [Phenylpropanolamine] | 98.2% |  |
| CC(N)C(O)c1ccccc1 (stereo unspecified) [Phenylpropanolamine hydrochloride] | 79.1% |  |
| CC(N)C(O)c1ccccc1 (stereo unspecified) | 99.2% |  |
| CC1=CCCC2C1(C)CCC(C)C2(C)CC/C(C)=C/Cn1c[n+](C)c2c(N)ncnc21 (stereo unspecified) [AGELASINE (stereochemistry of diterpene unknown)] | 74.9% |  |
| O=C(CCCN1CCC2(CC1)C(=O)NCN2c1ccccc1)c1ccc(F)cc1 [Spiperone] | 88 ± 44% |  |
| O=C(CCCN1CCC2(CC1)C(=O)NCN2c1ccccc1)c1ccc(F)cc1 | 102% |  |
| O=C(CCCN1CCC2(CC1)C(=O)NCN2c1ccccc1)c1ccc(F)cc1 [Spiperone hydrochloride] | 120% |  |
| CCCN(CCC)C1CCc2ccc(O)cc2C1 (racemic) [(±)-7-Hydroxy-DPAT hydrobromide] | 85.1% |  |
| CNC1CC(c2ccc(Cl)c(Cl)c2)c2ccccc21 (stereo unspecified) [Indatraline] | 121% |  |
| CCCCCCC(C)(C)c1ccc([C@@H]2C[C@H](O)CC[C@H]2CCCO)c(O)c1 | 77.2% |  |
| Cc1ncsc1CCCl [Chlormethiazole hydrochloride] | 98.3% |  |
| CCC1(c2ccc(N)cc2)CCC(=O)NC1=O (racemic) [(±)-p-Aminoglutethimide] | 90% |  |
| CCC1(c2ccc(N)cc2)CCC(=O)NC1=O (racemic) [DL-Aminoglutethimide] | 91.5% |  |
| CCOC(=O)c1cncn1[C@H](C)c1ccccc1 [Etomidate] | 106% |  |

| SMILES | HMGB1-induced TNF-alpha production (compound concentration: 3 uM) | HMGB1-induced TNF-alpha production [1] |
| --- | --- | --- |
| CCOC(=O)c1cncn1[C@H](C)c1ccccc1 | 85.8% and 95.7% |  |
| CCCn1c(=O)c2[nH]c(C3CCCC3)nc2n(CCCOC(=O)c2ccc(S(=O)(=O)F)cc2)c1=O | 88.6% |  |
| CC(O)(CS(=O)(=O)c1ccc(F)cc1)C(=O)Nc1ccc(C#N)c(C(F)(F)F)c1 (stereo unspecified) | 91% |  |
| CC(O)(CS(=O)(=O)c1ccc(F)cc1)C(=O)Nc1ccc(C#N)c(C(F)(F)F)c1 (stereo unspecified) [Bicalutamide (CDX)] | 88.3% |  |
| CC(O)(CS(=O)(=O)c1ccc(F)cc1)C(=O)Nc1ccc(C#N)c(C(F)(F)F)c1 (stereo unspecified) [Bicalutamide] | 97.7 ± 4.4% |  |
| CN1CCc2cc3c(cc2C1C1OC(=O)c2c1ccc1c2OCO1)OCO3 (single isomer, unassigned; (+)) [(+)-Bicuculline] |  | 75.9% |
| CC(C)c1cccc(C(C)C)c1O [Propofol] | 104 ± 20% |  |
| CC(C)c1cccc(C(C)C)c1O | 90.7% |  |
| C[C@]12CC[C@H](O)C[C@H]1CC[C@@H]1[C@@H]2CC[C@]2(C)[C@@H](C3=CC(=O)OC3)CC[C@]12O [Digitoxigenin] | 74% |  |
| CCCCCCCCCOc1ccc2[nH]cc(CCN)c2c1 [5-Nonyloxytryptamine] | 98.5% |  |
| C[C@]1(C(=O)O)CCC[C@]2(C)c3cc(O)ccc3CC[C@@H]12 [Podocarpic acid] |  | 68.2% |
| CCCN1CCC[C@@H]2Cc3n[nH]cc3C[C@H]21 [(-)-Quinpirole hydrochloride] | 112% |  |
| CCCN1CCC[C@@H]2Cc3n[nH]cc3C[C@H]21 (racemic) [(±)-Quinpirole dihydrochloride] | 91.9% |  |
| CCCN1CCC[C@@H]2Cc3n[nH]cc3C[C@H]21 | 97.2% |  |
| CN1C[C@H](CNC(=O)OCc2ccccc2)C[C@@H]2c3cccc4c3c(cn4C)C[C@H]21 [Metergoline] | 79.1 ± 37% |  |
| CN1C[C@H](CNC(=O)OCc2ccccc2)C[C@@H]2c3cccc4c3c(cn4C)C[C@H]21 | 77% |  |
| NNc1ccn([C@@H]2O[C@H](CO)[C@@H](O)[C@H]2O)c(=O)n1 [N4-Aminocytidine] |  | 69.5% |
| C=C(C)CN1CC[C@]23c4c5ccc(O)c4O[C@H]2c2[nH]c4ccccc4c2C[C@@]3(O)C1C5 | 74.2% |  |
